Data on two molecules can be found in patent US20190099470A1.

Common to all, as to details: remark: other sources report otherwise
Assay [1] addresses T1, IRF3 (mouse), P70671.
T1 chain: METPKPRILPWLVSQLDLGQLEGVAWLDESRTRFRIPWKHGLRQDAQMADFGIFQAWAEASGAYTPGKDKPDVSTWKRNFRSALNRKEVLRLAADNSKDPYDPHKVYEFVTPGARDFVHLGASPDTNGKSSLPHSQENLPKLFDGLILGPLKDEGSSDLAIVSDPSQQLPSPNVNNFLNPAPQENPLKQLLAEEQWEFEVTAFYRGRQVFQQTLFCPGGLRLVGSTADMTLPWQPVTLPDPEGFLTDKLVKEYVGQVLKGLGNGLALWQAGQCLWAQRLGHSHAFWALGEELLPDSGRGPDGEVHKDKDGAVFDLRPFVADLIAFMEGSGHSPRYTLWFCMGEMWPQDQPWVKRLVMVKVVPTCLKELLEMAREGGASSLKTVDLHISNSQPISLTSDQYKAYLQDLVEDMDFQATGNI
Nature of the assay: immunoblot of mitochondrial fraction of BMDC treated with purified MAVS aggregates from SLE plasma. On the technique in general: In western blotting, separated proteins are transferred to a membrane and probed.

The target of assay [2] is T2, Mouse MAVS, endogenous, on mitochondria of wild-type MEFs and BMDCs (mouse), Q8VCF0.
T2 chain: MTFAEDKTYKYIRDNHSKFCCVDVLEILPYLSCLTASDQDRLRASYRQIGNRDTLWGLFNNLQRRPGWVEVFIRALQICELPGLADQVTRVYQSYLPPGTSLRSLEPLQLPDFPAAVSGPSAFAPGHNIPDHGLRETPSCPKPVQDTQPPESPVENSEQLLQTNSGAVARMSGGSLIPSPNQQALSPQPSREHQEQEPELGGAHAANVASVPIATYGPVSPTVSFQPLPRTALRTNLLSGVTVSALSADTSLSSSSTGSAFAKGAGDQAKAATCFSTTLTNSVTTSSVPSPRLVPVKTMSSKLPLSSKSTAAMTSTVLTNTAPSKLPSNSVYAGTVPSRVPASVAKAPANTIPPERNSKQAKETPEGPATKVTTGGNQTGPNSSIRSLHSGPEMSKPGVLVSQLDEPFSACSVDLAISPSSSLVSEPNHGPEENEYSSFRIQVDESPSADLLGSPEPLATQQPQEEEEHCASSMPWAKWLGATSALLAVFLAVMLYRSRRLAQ
Nature of the assay: self-oligomerization in MEFs; semi-denaturing gel electrophoresis and immunoblot.

Assay [3] has as its target T2, Mouse MAVS, endogenous, on mitochondria …. Nature of the assay: self-oligomerization in MEFs; immunoblot.
Assay [4] shares this target. Briefly: self-oligomerization on purified MEF mitochondria; gel electrophoresis and immunoblot.

These are yes or no findings as the source states them, for the method shown. Some entries that bind do so weakly or less than the wild type.

B1: IRF3, P70671 1-419 (protein, mouse, UniProt P70671 1-419, looked up)
chain: METPKPRILPWLVSQLDLGQLEGVAWLDESRTRFRIPWKHGLRQDAQMADFGIFQAWAEASGAYTPGKDKPDVSTWKRNFRSALNRKEVLRLAADNSKDPYDPHKVYEFVTPGARDFVHLGASPDTNGKSSLPHSQENLPKLFDGLILGPLKDEGSSDLAIVSDPSQQLPSPNVNNFLNPAPQENPLKQLLAEEQWEFEVTAFYRGRQVFQQTLFCPGGLRLVGSTADMTLPWQPVTLPDPEGFLTDKLVKEYVGQVLKGLGNGLALWQAGQCLWAQRLGHSHAFWALGEELLPDSGRGPDGEVHKDKDGAVFDLRPFVADLIAFMEGSGHSPRYTLWFCMGEMWPQDQPWVKRLVMVKVVPTCLKELLEMAREGGASSLKTVDLHISNSQPISLTSDQYKAYLQDLVEDMDFQATGNI
B1: the binding entry in assay [1] is on record as “binds”.

B2: Mouse MAVS, endogenous, on mitochondria of wild-type MEFs and BMDCs, Q8VCF0 1-503 (protein, UniProt Q8VCF0 1-503, looked up)
chain: MTFAEDKTYKYIRDNHSKFCCVDVLEILPYLSCLTASDQDRLRASYRQIGNRDTLWGLFNNLQRRPGWVEVFIRALQICELPGLADQVTRVYQSYLPPGTSLRSLEPLQLPDFPAAVSGPSAFAPGHNIPDHGLRETPSCPKPVQDTQPPESPVENSEQLLQTNSGAVARMSGGSLIPSPNQQALSPQPSREHQEQEPELGGAHAANVASVPIATYGPVSPTVSFQPLPRTALRTNLLSGVTVSALSADTSLSSSSTGSAFAKGAGDQAKAATCFSTTLTNSVTTSSVPSPRLVPVKTMSSKLPLSSKSTAAMTSTVLTNTAPSKLPSNSVYAGTVPSRVPASVAKAPANTIPPERNSKQAKETPEGPATKVTTGGNQTGPNSSIRSLHSGPEMSKPGVLVSQLDEPFSACSVDLAISPSSSLVSEPNHGPEENEYSSFRIQVDESPSADLLGSPEPLATQQPQEEEEHCASSMPWAKWLGATSALLAVFLAVMLYRSRRLAQ
For the molecule B2, the binding entry in assay [2], in assay [3] and in assay [4] was “binds” each time.
